Reference: article PMC9510373
Results are given in words; binding and its absence hold for the method and conditions named. Binding seen in cells or lysates may run through a third protein. Binding can be weak; no strength is given. Tags and fused reporters may be left off the sequences shown.

By UniProt entry, the sequences of proteins in these tests, tags left out. Where a name states a change or a piece, a line headed by the entry shows the natural chain unless it says otherwise.
UniProt A0ACM8QIE5: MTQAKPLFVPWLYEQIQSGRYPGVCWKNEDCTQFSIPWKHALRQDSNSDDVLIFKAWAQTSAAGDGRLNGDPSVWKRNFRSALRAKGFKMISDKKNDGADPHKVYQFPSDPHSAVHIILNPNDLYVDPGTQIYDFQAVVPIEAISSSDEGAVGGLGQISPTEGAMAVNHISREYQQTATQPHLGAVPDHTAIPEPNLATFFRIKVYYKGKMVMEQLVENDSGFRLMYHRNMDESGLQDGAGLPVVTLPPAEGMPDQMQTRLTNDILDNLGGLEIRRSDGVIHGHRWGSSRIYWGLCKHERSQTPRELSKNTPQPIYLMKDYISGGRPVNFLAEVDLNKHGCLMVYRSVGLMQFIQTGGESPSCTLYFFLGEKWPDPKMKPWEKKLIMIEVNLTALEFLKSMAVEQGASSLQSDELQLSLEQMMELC
UniProt F1QNG2: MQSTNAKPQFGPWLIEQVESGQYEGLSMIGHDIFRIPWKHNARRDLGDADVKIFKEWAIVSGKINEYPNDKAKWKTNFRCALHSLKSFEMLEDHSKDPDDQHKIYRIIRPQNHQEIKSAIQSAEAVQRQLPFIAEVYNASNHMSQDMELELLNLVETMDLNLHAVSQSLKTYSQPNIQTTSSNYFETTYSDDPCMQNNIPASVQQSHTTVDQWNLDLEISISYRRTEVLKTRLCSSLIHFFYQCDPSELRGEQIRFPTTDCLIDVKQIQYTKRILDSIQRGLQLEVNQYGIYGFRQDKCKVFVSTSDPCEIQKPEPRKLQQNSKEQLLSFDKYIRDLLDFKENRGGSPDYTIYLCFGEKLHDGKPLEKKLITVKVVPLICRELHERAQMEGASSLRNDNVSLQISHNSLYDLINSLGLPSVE

These substances were tested against T1, zebrafish PLAAT1-GFP (zebrafish) (assay: co-IP; cells co-transfected (5 μg of each plasmid), lysed after 24 h in RIPA buffer with protease inhibitors; lysate incubated with α-GFP affinity gel at 4°C overnight, washed three times with ice-cold PBS; Western blotting).
T1 sequence: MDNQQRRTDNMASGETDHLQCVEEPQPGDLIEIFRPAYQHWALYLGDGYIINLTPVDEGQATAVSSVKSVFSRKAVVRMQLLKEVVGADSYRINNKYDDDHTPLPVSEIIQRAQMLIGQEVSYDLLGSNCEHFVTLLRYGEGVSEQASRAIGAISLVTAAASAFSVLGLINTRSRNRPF
For “zebrafish Myc-IRF3 (from UniProt A0ACM8QIE5)”, the binding was “binds”.
For “IRF7-ΔIAD (zebrafish) (domain or fragment)”, the binding was “no binding”.
In the case of “IRF3-ΔIAD (zebrafish) (domain or fragment)”, the binding is reported as “no binding”.
“zebrafish Myc-IRF7 (from UniProt F1QNG2)” was tested, and the binding was “binds”.
With “IRF7-ΔDBD (zebrafish) (domain or fragment)” the binding was “binds”.
For “IRF3-ΔDBD (zebrafish) (domain or fragment)”, the binding was “binds”.
